Laboratory results from patent US10702506B2, “Small molecule inhibitors of pendrin ion exchange and pharmaceutical compositions” (THE REGENTS OF THE UNIVERSITY OF CALIFORNIA, priority 2016, dated 2020).
For at least one compound, name, drawing or mass did not settle the structure.

Assays:
mice (CD-1 and C57Bl/6) = assay: Acute furosemide diuresis model in mice; type: in vivo
Description: Pharmacokinetics measurements were done to guide studies of diuretic efficacy. Animal experiments were approved by UCSF Institutional Animal Care and Use Committee. Female CD1 mice (8-10 weeks) were injected with 10 mg/kg PDSinh-C01 (in saline containing 5% DMSO and 10% Kolliphor HS) ip and blood was collected by orbital puncture at 15, 30, 60, 150 and 240 min, and centrifuged at 5000 rpm for 15 min to separate plasma. Urine was collected in metabolic cages. An LC/MS method was developed to measure PDSinh-C01 concentrations in mouse blood and urine. Plasma and urine samples (60 μL) were mixed with 300-μL acetonitrile and centrifuged at 13000 rpm for 20 min, and 90 μL of the supernatant was taken for liquid chromatography/mass spectrometry (LC/MS; Waters 2695 and Micromass ZQ). The solvent system consisted of a linear gradient from 5 to 95% acetonitrile over 16 min. Sodium and potassium concentrations in 3-h collected urine samples were measured by flame photometry (PFP7 Clinical Flame Photometer, Bibby Scientific Ltd, Stone. Staffs, UK). For blood gas analysis, arterial blood was collected from the abdominal aorta under isoflurane anesthesia 3 h after treatment. Blood gas was analyzed by iSTAT1 with CG4+ cartridges (Abbott Laboratories, Abbott Park, IL, USA). Urine pH was measured on freshly collected urine samples using an AB 15 pH Meter (Fisher Scientific, Pittsburgh, Pa., USA). Experiments with two groups were analyzed with Student's t-test, and experiments with 3 or more groups were analyzed using one-way analysis of variance and post-hoc Newman-Keuls multiple comparisons test. P<0.05 was taken as statistically significant.
In acute studies, mice (both CD-1 and C57Bl/6 strains) were injected ip with 10 or 50 mg/kg PDSinh-C01. In some experiments mice were treated with 10 mg/kg PDSinh-C01 together with furosemide (5, 10, 20 or 50 mg/kg, ip). The mice were placed in individual metabolic cages and spontaneously voided urine was collected for 3 h for measurement of volume and osmolality (freezing point depression osmometry, Micro-osmometer; Precision Systems, Natick, Mass., USA).
Mice were administered furosemide and PDSinh-C01 (or vehicle) ip at zero time, and urine was collected for the next 3 hours.

pendrin = target: T1, pendrin (Homo sapiens, UniProt O43511); assay: BCECF cytoplasmic pH assay of pendrin-mediated Cl−/HCO3− exchange in pendrin-expressing FRT cells; type: cell-based; set-up: expressed in transfected cells; settings: 25 μM
T1 sequence (O43511 1-780): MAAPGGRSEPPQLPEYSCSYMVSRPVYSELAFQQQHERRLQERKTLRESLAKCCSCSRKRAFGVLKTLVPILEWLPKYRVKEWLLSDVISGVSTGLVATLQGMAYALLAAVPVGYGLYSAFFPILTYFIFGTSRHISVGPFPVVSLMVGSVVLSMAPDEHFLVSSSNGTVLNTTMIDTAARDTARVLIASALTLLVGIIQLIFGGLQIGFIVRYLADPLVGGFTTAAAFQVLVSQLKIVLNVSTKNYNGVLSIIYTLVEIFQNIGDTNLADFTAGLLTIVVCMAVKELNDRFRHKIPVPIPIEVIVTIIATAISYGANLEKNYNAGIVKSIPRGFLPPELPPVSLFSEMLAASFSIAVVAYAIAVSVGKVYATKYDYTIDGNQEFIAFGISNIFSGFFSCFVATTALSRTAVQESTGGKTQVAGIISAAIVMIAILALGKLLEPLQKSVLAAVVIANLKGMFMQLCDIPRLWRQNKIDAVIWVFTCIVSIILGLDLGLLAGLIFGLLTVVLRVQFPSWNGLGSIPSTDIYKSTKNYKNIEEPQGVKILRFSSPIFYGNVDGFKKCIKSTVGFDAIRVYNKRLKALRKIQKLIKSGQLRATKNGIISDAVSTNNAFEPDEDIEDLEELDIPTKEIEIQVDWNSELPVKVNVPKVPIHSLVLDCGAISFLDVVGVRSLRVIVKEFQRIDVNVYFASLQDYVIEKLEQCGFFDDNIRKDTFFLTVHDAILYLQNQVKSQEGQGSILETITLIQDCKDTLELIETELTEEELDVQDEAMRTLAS
Description: Cytoplasmic pH (pHi) was measured to assay pendrin-mediated Cl^−/HCO3^− exchange in pendrin-expressing FRT cells and primary cell cultures using the pH-sensitive fluorescent probe BCECF. Cells were loaded for 20 min using 10 μM BCECF-AM (Invitrogen, Carlsbad, Calif.) in HCO3^−-containing buffer (in mM: 120 NaCl, 5 KCl, 1 CaCl2), 1 MgSO4, 10 glucose, 5 Hepes, 25 NaHCO3; pH 7.4) at 27° C. in a tissue culture incubator. Cells were washed and transferred to the stage of a TE2000 microscope (Nikon, Melville, N.Y.) equipped with a C9100 EM-CCD (Hamamatsu, San Jose, Calif.), XCite light source (Excelitas, Waltham, Mass.), Nikon 20×N.A. 0.75 S Fluor objective, Uniblitz shutter (Vincent Associates, Rochester, N.Y.), and filters for BCECF fluorescence (Chroma, Bellows Fall, Vt.), where they were purged with 95% O2/5% CO2. […] BCECF pH-sensitive fluorescence (490 nm excitation, 535 nm emission) was acquired at 0.5 Hz, with control experiments confirming that BCECF pH-insensitive fluorescence was not altered during exchange protocols. In some experiments pHi changes in the absence of HCO3^− were measured using buffers in which NaCl or Na gluconate replaced NaHCO3^−. To relate BCECF fluorescence to pH, a calibration curve over the quasi-linear range of BCECF sensitivity (pH 6.6-7.7) was generated as described. […]

## Cc1n[nH]c(-c2cc(S(=O)(=O)NC3CCCc4ccccc43)c(C)s2)c1C (stereo not shown) [PDSinh-C01]
Mice (CD-1 and C57Bl/6); 10 mg/kg ip with furosemide
  diuretic effect compared with maximal furosemide (50 mg/kg): significantly greater
Mice (CD-1 and C57Bl/6); 10 mg/kg ip with furosemide, 3 h urine
  urine osmolality: without effect
Mice (CD-1 and C57Bl/6); 50 mg/kg
  potentiation of furosemide effect at increased dose: did not further potentiate
Mice (CD-1 and C57Bl/6); with 20 mg/kg furosemide
  blood gas / acid-base status: compensated metabolic alkalosis
  urine pH: did not affect
Mice (CD-1 and C57Bl/6); with furosemide
  3-h urinary Na+ excretion: increased
pendrin
  inhibition of cytoplasmic alkalinization (Cl−/HCO3− exchange): strongly inhibited
